Drawing on publication PMC3762901, “Cyclic Peptide Inhibitors of the β-Sliding Clamp in Staphylococcus aureus” (PLoS ONE, 2013), this text covers binding for two molecules.

No constants are given. Whether binding was seen depends on the method and setting. Some results given as binding are weak or reduced against the parent protein; the word gives no strength.

Test [1] concerns the target T1, DnaB of S. aureus (S. aureus) (UniProt Q2FXP4).
T1 sequence: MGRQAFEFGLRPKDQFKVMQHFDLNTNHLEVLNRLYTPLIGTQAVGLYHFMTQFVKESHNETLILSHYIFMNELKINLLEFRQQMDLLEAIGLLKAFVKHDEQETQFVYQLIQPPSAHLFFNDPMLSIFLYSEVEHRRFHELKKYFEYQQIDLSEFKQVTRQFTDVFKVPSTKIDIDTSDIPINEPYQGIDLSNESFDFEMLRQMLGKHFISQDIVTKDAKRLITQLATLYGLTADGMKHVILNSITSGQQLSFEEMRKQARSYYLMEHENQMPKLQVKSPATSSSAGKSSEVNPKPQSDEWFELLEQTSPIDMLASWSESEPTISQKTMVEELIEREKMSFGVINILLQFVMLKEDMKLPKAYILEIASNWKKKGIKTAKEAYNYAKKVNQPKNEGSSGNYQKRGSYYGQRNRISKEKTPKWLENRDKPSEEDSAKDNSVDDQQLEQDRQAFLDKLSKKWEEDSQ
In words: two-hybrid; bacterial two-hybrid (BTH): T18 and T25 fusions (pUT18 and p25N derivatives) in E. coli BTH101; colour of colonies on plates with 40 μg/ml X-gal.

For test [2], the target named is HolB (δ`) of S. aureus (S. aureus). The description is as above.
Test [3] addresses T2, DnaA of S. aureus (S. aureus) (UniProt Q2G2H5).
T2 sequence: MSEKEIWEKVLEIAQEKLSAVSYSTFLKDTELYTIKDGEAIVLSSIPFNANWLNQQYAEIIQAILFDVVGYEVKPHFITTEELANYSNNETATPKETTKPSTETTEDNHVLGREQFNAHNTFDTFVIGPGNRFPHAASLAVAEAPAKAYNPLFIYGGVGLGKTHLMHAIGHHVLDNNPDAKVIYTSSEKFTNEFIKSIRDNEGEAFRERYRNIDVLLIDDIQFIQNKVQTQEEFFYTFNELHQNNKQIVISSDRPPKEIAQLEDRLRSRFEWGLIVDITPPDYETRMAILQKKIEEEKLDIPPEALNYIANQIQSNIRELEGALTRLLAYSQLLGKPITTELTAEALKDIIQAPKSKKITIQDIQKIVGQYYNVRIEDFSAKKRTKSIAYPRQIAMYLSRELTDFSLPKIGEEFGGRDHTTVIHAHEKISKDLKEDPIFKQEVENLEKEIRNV
Described as above.

The target of test [4] is T1, DnaB of S. aureus (S. aureus). In words: two-hybrid; reverse bacterial two-hybrid (R-BTH) in E. coli SC01 (pyrF behind the lac promoter); growth on LB plates with 1.3 μg/ml 5-FOA, 2 days at 30°C; no growth means interaction.

B1: DnaB of S. aureus (protein, UniProt Q2FXP4 1-466)
chain: MGRQAFEFGLRPKDQFKVMQHFDLNTNHLEVLNRLYTPLIGTQAVGLYHFMTQFVKESHNETLILSHYIFMNELKINLLEFRQQMDLLEAIGLLKAFVKHDEQETQFVYQLIQPPSAHLFFNDPMLSIFLYSEVEHRRFHELKKYFEYQQIDLSEFKQVTRQFTDVFKVPSTKIDIDTSDIPINEPYQGIDLSNESFDFEMLRQMLGKHFISQDIVTKDAKRLITQLATLYGLTADGMKHVILNSITSGQQLSFEEMRKQARSYYLMEHENQMPKLQVKSPATSSSAGKSSEVNPKPQSDEWFELLEQTSPIDMLASWSESEPTISQKTMVEELIEREKMSFGVINILLQFVMLKEDMKLPKAYILEIASNWKKKGIKTAKEAYNYAKKVNQPKNEGSSGNYQKRGSYYGQRNRISKEKTPKWLENRDKPSEEDSAKDNSVDDQQLEQDRQAFLDKLSKKWEEDSQ
B1: the binding entry was “binds” in test [1], “no binding” in test [2], “no binding” in test [3] and “binds” in test [4].

B2: DnaA of S. aureus (protein, UniProt Q2G2H5 1-453)
chain: MSEKEIWEKVLEIAQEKLSAVSYSTFLKDTELYTIKDGEAIVLSSIPFNANWLNQQYAEIIQAILFDVVGYEVKPHFITTEELANYSNNETATPKETTKPSTETTEDNHVLGREQFNAHNTFDTFVIGPGNRFPHAASLAVAEAPAKAYNPLFIYGGVGLGKTHLMHAIGHHVLDNNPDAKVIYTSSEKFTNEFIKSIRDNEGEAFRERYRNIDVLLIDDIQFIQNKVQTQEEFFYTFNELHQNNKQIVISSDRPPKEIAQLEDRLRSRFEWGLIVDITPPDYETRMAILQKKIEEEKLDIPPEALNYIANQIQSNIRELEGALTRLLAYSQLLGKPITTELTAEALKDIIQAPKSKKITIQDIQKIVGQYYNVRIEDFSAKKRTKSIAYPRQIAMYLSRELTDFSLPKIGEEFGGRDHTTVIHAHEKISKDLKEDPIFKQEVENLEKEIRNV
With B2, the binding entry was “no binding” in test [2] and “binds weakly” in test [3].
